This is an account of results in patent US9976141B2 (Arrowhead Madison Inc., priority 2015, dated 2018).

The data set is described as follows: general procedure: Fmoc solid-phase peptide synthesis; 2-Cl-Trt resin preloaded with Fmoc-Proline-OH.

Substance RGD-PEGn-FCitFPro-TFP returned a step yield (purification step, on 257 mg injected crude) of 70%.
In the case of (diboc)RGD(OtBu)-APBA-PEGn-FCitFPro-TFP, for the setting “late stage modification step”, the step yield came out at 92%.
